# Experimental data from PubChem BioAssay AID540276 (National Center for Advancing Translational Sciences (NCATS), 2011).
# In all, about 300,000 compounds went through this assay and about 5,400 (1.8%) were called active. Inconclusive means that the source gave no clear call. Such entries were picked first, then a sample of the others. Calls follow the shape of the full dose curve; tested in HEK293 cells. A potency beside an inconclusive call is a rough fit, not a confirmed value.
# Test: qHTS for inhibitors of binding or entry into cells for Marburg Virus
# Conditions: Marburg virus pseudotyped entry inhibition, cell reporter; series mostly up to 37.8 µM
# Potency is read from the fitted curve at half-maximal effect.
row,SMILES,Potency
1,O=Cc1ccc(OCc2cn3ccccc3n2)cc1,"inconclusive: 10.3 µM [inhibitor, partial curve, poor fit]"
2,O=C(CN1C(=O)CSC1=O)NCc1ccccc1,"inconclusive: 10.3 µM [activator, partial curve, poor fit]"
3,Cc1cc(S(=O)(=O)NC2CCCCC2)ccc1-n1cnnn1,"inconclusive: 5.62 µM [inhibitor, partial curve]"
4,CCCS(=O)(=O)Nc1ccc(Nc2c3ccccc3nc3ccccc23)c(OC)c1,"inconclusive: 1 µM [inhibitor, full curve, poor fit]"
5,CC1CCCN(CC(O)CN2CCN(CC(O)CN3CCCC(C)C3)C(C)C2)C1 (stereo not given),active: 1.12 µM
6,O=C(CC12CC3CC(CC(C3)C1)C2)N/N=C/c1ccc([N+](=O)[O-])o1,"inconclusive: 14.1 µM [inhibitor, single point]"
7,CCOC(=O)c1cnn(-c2ccc(C(F)(F)F)cn2)c1N,"inconclusive: 13 µM [activator, single point]"
8,Cc1cccc(-n2ncc3c(NCc4ccco4)ncnc32)c1,"inconclusive: 35.5 µM [inhibitor, single point]"
9,Nc1nc(N)c(N=O)c(OCC2CCCCC2)n1,"inconclusive: 1.64 µM [inhibitor, full curve]"
10,COC1=C(OC)C(=O)C(Sc2ccc3ccccc3c2)=CC1=O,"inconclusive: 20 µM [inhibitor, single point]"
11,COc1cc(OC)c(C2CC(=O)Nc3ccc4ccccc4c32)cc1OC (stereo not given),"inconclusive: 35.5 µM [inhibitor, single point]"
12,COc1ccccc1N(C)S(=O)(=O)c1ccc(Cl)c(C(=O)NCc2cccnc2)c1,inactive
13,CCCOc1ccc(CN(C)c2ncnc(N)n2)cc1,"inconclusive: 3.55 µM [inhibitor, full curve, poor fit]"
14,O=C(CCOc1ccccc1)N1CCN(c2ccc(O)cc2)CC1,"inconclusive: 35.5 µM [inhibitor, single point]"
15,COc1ccc(NC(=O)c2ccc(-c3ccc([N+](=O)[O-])cc3)o2)cc1OC,"inconclusive: 20.6 µM [inhibitor, single point]"
16,COc1ccc(C(=O)NNC2=CC(=O)CC(C)(C)C2)cc1,inactive
17,CC(=O)c1ccc(N2CCN(C(=O)c3ccco3)CC2)c(F)c1,"inconclusive: 2.24 µM [activator, full curve, poor fit]"
18,Cc1c(Cl)cccc1Nc1nc(N)nc(CN2CCCCCC2)n1,inactive
19,CCOC(=O)c1sc(Nc2nc3cc4c(cc3s2)OCO4)cc1C,inactive
20,CCCNC(=O)OC[C@H]1O[C@@H](CCO/N=C2/C[C@@H](O)[C@@H](O)[C@@H]3[C@@H]4C(=O)N(CC)C(=O)[C@H]4CC[C@@H]23)C=C[C@@H]1Oc1ccc(OC)cc1,inactive
21,Cc1noc(NS(=O)(=O)c2ccc(N/C=C\C(=O)c3ccc4c(c3)OCO4)cc2)c1C,"inconclusive: 0.651 µM [inhibitor, single point]"
22,COc1ccccc1Nc1nc(NCCO)nc(N)c1[N+](=O)[O-],"inconclusive: 3.55 µM [inhibitor, partial curve, poor fit]"
23,Cn1c(=O)c2c(ncn2CC(=O)N/N=C/C(Br)=C/c2ccccc2)n(C)c1=O,inactive
24,Cc1ccc(C2CC(=O)NC(SCC(=O)OCc3ccccc3)=C2C#N)o1 (stereo not given),"inconclusive: 7.08 µM [inhibitor, partial curve, poor fit]"

row,SMILES,Potency
1,COC(=O)c1ccc(C2C(C(=O)Nc3ccc(C)cc3C)=C(C)Nc3ncnn32)cc1 (stereo not given),inactive
2,O=C(CSc1nc2ccccc2c(=O)n1CCCO)NCc1ccccc1,inactive
3,CC1(c2ccc(OC(F)F)cc2)NC(=O)N(CC(=O)NC2CCCCC2)C1=O (stereo not given),"inconclusive: 0.562 µM [activator, full curve, poor fit]"
4,Cc1ccc(-c2csc(NC(=O)CSc3nc(C)cc(=O)[nH]3)n2)cc1,inactive
5,COc1cccc(NC(=O)CCc2c(C)nn(-c3ccc(N4CCOCC4)nn3)c2C)c1,inactive
6,COc1ccc(C(OCC(O)CNCCc2ccc(S(N)(=O)=O)cc2)c2ccc(OC)cc2)cc1 (stereo not given),"inconclusive: 6.31 µM [inhibitor, partial curve, poor fit]"
7,COc1ccc(S(=O)(=O)Nc2ccc(S(=O)(=O)N(C)C)cc2)cc1[N+](=O)[O-],"inconclusive: 1.41 µM [activator, full curve, poor fit]"
8,O=C(O)c1ccccc1-c1cc2ccccc2[nH]1,inactive
9,Cn1c(=NC(=O)CCl)sc2ccccc21,"inconclusive: 28.2 µM [inhibitor, single point]"
10,NC(=O)c1cnccn1,"inconclusive: 10.3 µM [activator, partial curve, poor fit]"
11,Cc1cccc(-c2cc(C(=O)Nc3ccc4c(c3)OCCO4)c3ccccc3n2)c1,inactive
12,Cc1cccn2cc(-c3ccc(S(=O)(=O)N4CCOCC4)cc3)nc12,inactive
13,Cc1ccc(Cn2c(CCNC(=O)c3cccc(C)c3)nc3ccccc32)cc1,"inconclusive: 1 µM [inhibitor, full curve, poor fit]"
14,Cn1c(N)nc2nc[nH]c2c1=S,inactive
15,CC(C)c1ccc(/C=N/NC(=O)c2ccccn2)cc1,active: 5.01 µM
16,Cc1ccc(/C=N/NC(=O)CCCOc2ccc(Cl)cc2Cl)cc1,"inconclusive: 22.4 µM [inhibitor, single point]"
17,COc1cc(/C=C(\C#N)C(=O)Nc2cccnc2)ccc1OC(C)C,"inconclusive: 4.47 µM [activator, partial curve, poor fit]"
18,Cc1ccc(O)c(N/C=C/C(=O)c2ccc(F)cc2)c1,"inconclusive: 5.01 µM [inhibitor, partial curve, poor fit]"
19,Cc1ccc(NC(=O)c2ccc(CSc3ncnc4nc[nH]c34)cc2)c(C)c1,"inconclusive: 35.5 µM [inhibitor, single point]"
20,COc1ccc2c(Cn3cnc4cc([N+](=O)[O-])ccc4c3=O)cc(=O)oc2c1,active: 4.47 µM
21,COc1cc(/C=N/NC(=O)c2ccc(COc3cc(C)ccc3C(C)C)cc2)cc(OC)c1O,"inconclusive: 11.2 µM [inhibitor, partial curve, poor fit]"
22,CCOC(=O)C1(CC2CC2)CCN(Cc2cn(C)c3ccccc23)CC1,"inconclusive: 11.2 µM [inhibitor, partial curve, poor fit]"
23,COc1ccc(C(=O)Nc2nnc(Cc3ccccc3)s2)c(OC)c1,"inconclusive: 3.16 µM [activator, single point]"
24,Cc1cc(C(=O)C(C)Cl)c(C)n1Cc1ccco1 (stereo not given),inactive

# Taken from the listing, 2 compounds:
row,SMILES,Potency
11,COc1cc(OC)c(C2CC(=O)Nc3ccc4ccccc4c32)cc1OC (stereo not given),"inconclusive: 35.5 µM [inhibitor, single point]"
12,COc1ccccc1N(C)S(=O)(=O)c1ccc(Cl)c(C(=O)NCc2cccnc2)c1,inactive

# The list continues:

row,SMILES,Potency
1,CC(C)c1ccc(S(=O)(=O)N2CCC(C(=O)NCC3(N(C)C)CCCCC3)CC2)cc1,"inconclusive: 15.8 µM [inhibitor, single point]"
2,CC(=O)Nc1c(Cl)c(Cl)c2c(c1Cl)C(=O)c1cc(Cl)ccc1-2,inactive
3,COc1ccc(NC2=CC(c3ccc(F)cc3)N(c3ccc(OC)cc3)C2=O)cc1 (stereo not given),"inconclusive: 0.231 µM [inhibitor, single point]"
4,O=C(NNC(=O)c1c(O)c2ccccc2[nH]c1=O)c1ccccc1Br,inactive
5,COc1cc(C(=O)Nc2cccc(-c3nnc(-c4ccco4)o3)c2)ccc1OC(C)=O,"inconclusive: 35.5 µM [inhibitor, single point]"
6,COc1ccc(-n2nc([N+](=O)[O-])c(=NCc3ccco3)n2O)cc1,"inconclusive: 5.01 µM [activator, partial curve, poor fit]"
7,O=C(NCCCNC(=O)c1ccco1)c1ccc(Cl)cc1,"inconclusive: 35.5 µM [activator, single point]"
8,CCN(Cc1ccccc1)C(=O)COC(=O)CNS(=O)(=O)c1ccc(C)cc1,"inconclusive: 12.6 µM [activator, single point]"
9,CCCN(Cc1cc2cccc(C)c2[nH]c1=O)C(=O)c1cccc(Cl)c1,inactive
10,CSc1nn(-c2ccc(C(=O)OCC(=O)NC(=O)NC(C)C)cc2)c(=S)s1,inactive
11,CCOc1ccccc1CNCCCSc1nnnn1C,inactive
12,COc1ccc(C2C(C(C)=O)=C(C)Nc3ncnn32)cc1[N+](=O)[O-] (stereo not given),inactive
13,COc1ccc(NC(=O)CCS(=O)(=O)c2ccccc2)c(OC)c1,"inconclusive: 18.3 µM [activator, single point]"
14,CCOC(=O)c1c(-c2ccccc2)oc2ccc(O)c(CN3CCN(C)CC3)c12,"inconclusive: 11.2 µM [inhibitor, partial curve, poor fit]"
15,O=Cc1ccc(C(=O)OCC(=O)Nc2ccc(F)cc2F)cc1,inactive
16,CCSc1nnc(CCNC(=O)OC(C)(C)C)o1,inactive
17,O=C(NCC(=O)N(Cc1ccccc1)C(C(=O)NC1CCCC1)c1ccco1)c1ccco1 (stereo not given),inactive
18,Cc1nnc2ccc(N3CCC4(CC3)OCCO4)nn12,"inconclusive: 1.3 µM [inhibitor, partial curve, poor fit]"
19,Cc1ccc(-n2c(SCC(=O)NCCN3C(=O)CSC3=O)nnc2-c2ccccc2)cc1C,"inconclusive: 3.55 µM [activator, partial curve, poor fit]"
20,O=C(/C=C\c1cn(-c2ccccc2)nc1-c1cccs1)N1CCOCC1,"inconclusive: 23.1 µM [inhibitor, single point]"
21,Clc1cnc(N/N=C/c2cccs2)c(Cl)c1,"inconclusive: 35.5 µM [inhibitor, single point]"
22,CCOc1ccc(NS(=O)(=O)c2ccc(NS(C)(=O)=O)cc2)cc1,"inconclusive: 8.91 µM [inhibitor, partial curve]"

# Molecules shown so far with a thiophene ring, fused or not, in the order listed:
row,SMILES,Potency
19,CCOC(=O)c1sc(Nc2nc3cc4c(cc3s2)OCO4)cc1C,inactive
20,O=C(/C=C\c1cn(-c2ccccc2)nc1-c1cccs1)N1CCOCC1,"inconclusive: 23.1 µM [inhibitor, single point]"
21,Clc1cnc(N/N=C/c2cccs2)c(Cl)c1,"inconclusive: 35.5 µM [inhibitor, single point]"
